# Source: PubChem BioAssay AID1671190 (National Center for Advancing Translational Sciences (NCATS), 2021)
# Protein sequences, listed by entry. Tags and fused reporters are not part of them.
# UniProt P18054, whole entry, looked up: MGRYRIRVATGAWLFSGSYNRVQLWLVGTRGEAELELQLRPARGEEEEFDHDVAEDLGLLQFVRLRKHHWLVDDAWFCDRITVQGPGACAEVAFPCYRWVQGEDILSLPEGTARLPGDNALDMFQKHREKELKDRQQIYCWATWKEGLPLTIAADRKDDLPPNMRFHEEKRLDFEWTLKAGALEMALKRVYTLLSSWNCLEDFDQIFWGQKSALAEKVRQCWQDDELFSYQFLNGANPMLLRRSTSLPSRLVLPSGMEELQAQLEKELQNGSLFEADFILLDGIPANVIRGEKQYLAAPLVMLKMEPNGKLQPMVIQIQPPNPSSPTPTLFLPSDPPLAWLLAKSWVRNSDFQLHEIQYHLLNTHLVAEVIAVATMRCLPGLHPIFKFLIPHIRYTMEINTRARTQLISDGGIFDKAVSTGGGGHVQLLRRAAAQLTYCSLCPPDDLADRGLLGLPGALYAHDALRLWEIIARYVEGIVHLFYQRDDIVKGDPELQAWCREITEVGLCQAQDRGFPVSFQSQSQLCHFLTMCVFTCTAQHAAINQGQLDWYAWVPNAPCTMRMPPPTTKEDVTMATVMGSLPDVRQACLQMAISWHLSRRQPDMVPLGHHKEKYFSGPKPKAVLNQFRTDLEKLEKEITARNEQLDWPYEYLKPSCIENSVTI
# Among all 580,000 compounds or so, about 6,100 (1.1%) were called active. Inconclusive means that the source gave no clear call. Such entries were picked first, then a sample of the others. Calls come from the whole dose curve; as a rule, active = well fitted inhibition curve with a large enough effect; inconclusive = small, poorly fitted or top-dose-only effect, or another doubt; inactive = no such curve, though single readings can be large or run the other way. Potencies of inconclusive entries are doubtful fits and often do not repeat. The source holds several records for some structures; these can differ, active in one and inactive in another.
# Biological target: Polyunsaturated fatty acid lipoxygenase ALOX12 (Homo sapiens) (UniProt P18054)
# Experiment: Primary qHTS assay for inhibitors of human arachidonate 12S-lipoxygenase (ALOX12): Round 2
# Details: purified 12hLO, xylenol orange hydroperoxide absorbance; activity change, negative = inhibition: at 108 µM (top of the series) unless noted
# Outline: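 Hydroperoxide product was detected by ferrous iron/xylenol orange as the 573 to 405 nm absorbance ratio. Arachidonic acid at 40 uM (final) was turned over for 30 min at room temperature by 150 nM human 12hLO, pH 7.0 Hepes buffer, after 15 min compound preincubation.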
# % is set by controls: 0 for no effect and ±100 for the full control effect; potency is the fitted concentration of half-maximal effect.
SMILES,Potency,"activity change, negative = inhibition"
C[N+]1(CC2COC3(CCCCC3)O2)CCCCC1 (centres undefined),"inconclusive: 22.4 µM [inhibitor, partial curve]",
CC(C)(C)c1ccc(CC(=O)N2CCC2(C)C(=O)NS(=O)(=O)c2ccc(F)cc2F)cc1 (centres undefined),"inconclusive: 5.62 µM [inhibitor, full curve, poor fit]",
COc1cc(/C=N/N2CCN(c3ccccc3OC)CC2)ccc1O,"inconclusive: 50.1 µM [inhibitor, full curve, poor fit]",
CC(C)OC(=O)N1CCC(COc2ccc3c(cnn3CC[S+](C)(=O)[O-])c2)CC1,"inconclusive: 28.2 µM [inhibitor, full curve, poor fit]",
O=C(CS(=O)(=O)c1ccccc1)Nc1ccc(Cl)cn1,inactive,
CCN=C1NN=C(c2ccc(C)cc2)CS1,"inconclusive: 70.8 µM [inhibitor, partial curve, poor fit]",
NCC1Cn2cccc2CN1Cc1ccccc1 (centres undefined),inactive,
COc1ccccc1-n1c(CNC(=O)c2ccco2)n[nH]c1=S,inactive,
Cc1ccc(S(=O)(=O)N2CCC(C(=O)OCc3c(C)noc3C)CC2)cc1C,inactive,
Cc1ccc(N2CCC(NC(=O)c3ccc(F)cc3Cl)C2=O)cc1C (centres undefined),"inconclusive: 44.7 µM [inhibitor, partial curve]",
CCN(CC(=O)NCc1cccs1)S(=O)(=O)c1cccc(Br)c1,"inconclusive: 56.2 µM [inhibitor, partial curve, poor fit]",
CC(=O)c1cc(-c2ccccc2)n(CC(=O)Nc2ccc(C)cc2C)c1C,"inconclusive: 141 µM [inhibitor, partial curve, poor fit]",
Cc1cc(N2C(=O)C(O)=C(C(=O)c3ccc(C)o3)C2c2cccc(Cl)c2)no1 (centres undefined),active: 44.7 µM,
COc1ccc(-c2nc(SCC(=O)NCc3ccco3)c(-c3ccccc3)[nH]2)cc1OC,"inconclusive: 126 µM [inhibitor, partial curve, poor fit]",
COc1ccc(-c2noc(N3CCC(C(=O)Nc4ccc(OC)cc4OC)CC3)n2)cc1,inactive,
Cc1c(Cl)cccc1N1C(=O)CC(NNC(=O)c2cccnc2)C1=O (centres undefined),"inconclusive: 100 µM [inhibitor, partial curve, poor fit]",
Cc1ccc(-c2nc(CS(=O)CC(=O)O)c(C)o2)cc1 (centres undefined),,inconclusive: -30.6% [inhibitor]
Cc1ccc(S(=O)(=O)c2cn(CC(=O)Nc3ccccc3)c3cc4c(cc3c2=O)OCO4)cc1,"inconclusive: 44.7 µM [inhibitor, partial curve, poor fit]",
COc1ccc(OC)c(CN2CCCn3nc(C)c(-c4ccccc4OCc4ccccc4)c32)c1,"inconclusive: 10 µM [inhibitor, full curve]",
COC(=O)C1=C(C)NC(=O)NC1c1ccc(-c2ccc(F)cc2)o1 (centres undefined),"inconclusive: 44.7 µM [inhibitor, partial curve, poor fit]",
O=C(Nc1ccccc1)c1cc(C2CCCCN2C(=O)CCCc2ccccc2)on1 (centres undefined),"inconclusive: 35.5 µM [inhibitor, partial curve, poor fit]",
CCCc1ccc(C(=O)NNc2cccc(C)c2)cc1,"inconclusive: 0.501 µM [inhibitor, full curve, poor fit]",
CCCCCNc1ncnc2c1CN(c1ccc(OC)cc1)C(=O)CN2C,inactive,

# Copied from the list:
# For Potency, `CCCCCNc1ncnc2c1CN(c1ccc(OC)cc1)C(=O)CN2C` has inactive
# For Potency, `CCN=C1NN=C(c2ccc(C)cc2)CS1` has inconclusive: 70.8 µM [inhibitor, partial curve, poor fit]
# For Potency, `CC(=O)c1cc(-c2ccccc2)n(CC(=O)Nc2ccc(C)cc2C)c1C` has inconclusive: 141 µM [inhibitor, partial curve, poor fit]

# Further results

SMILES,Potency,"activity change, negative = inhibition"
O=C(O)CNS(=O)(=O)c1ccc(Cl)c(Cl)c1,"inconclusive: 100 µM [inhibitor, single point]",
CCOc1ccccc1NC(=O)NC(CC)c1c(-n2cccc2)sc2c1CCN(C)C2 (centres undefined),"inconclusive: 89.1 µM [inhibitor, partial curve, poor fit]",
Cc1cccc(C)c1N1CCN(C(=O)c2ccc3c(c2)OCO3)CC1,"inconclusive: 112 µM [inhibitor, single point]",
OC(c1cc(-c2ccc(C(F)(F)F)cc2)nc(C(F)(F)F)c1)C1CCCCN1 (centres undefined),"inconclusive: 2 µM [inhibitor, partial curve, poor fit]",
Clc1cccc(OCCOCCN2CCNCC2)c1Cl,"inconclusive: 112 µM [inhibitor, single point]",
O=C(O)c1ccccc1OCc1nc2ccccc2s1,inactive,
O=C(CSc1ncccc1C(=O)O)NC12CC3CC(CC(C3)C1)C2,active: 22.4 µM,
CC(=O)Nc1ccc(C(=O)CSc2nnc(-c3ccc(O)cc3)n2CC2CCCO2)cc1 (centres undefined),"inconclusive: 10 µM [inhibitor, full curve]",
COc1ccc(OC)c(S(=O)(=O)NCC(=O)N2CCCCCNC(=O)CC2c2ccccc2)c1 (centres undefined),inactive,
Cn1ccnc1C(=O)N1CC(F)(F)C[C@H]1c1nc(C2CC2)no1,inactive,
CNc1c(NC(=O)NCCC(C)C)c(=O)oc2ccccc12,inactive,
CCc1ccc(Nc2nc3ccccc3c3nnc(C)n23)cc1,"inconclusive: 100 µM [inhibitor, partial curve, poor fit]",
CCOc1cccc(/C=N/NC(=S)Nc2cc(S(=O)(=O)N3CCOCC3)ccc2N2CCOCC2)c1O,"inconclusive: 8.91 µM [inhibitor, full curve]",
CC(C)(C)c1cnnn1-c1ccc(C=O)cc1,inactive,
COC(=O)[C@@]1(C#N)CC(=O)N([C@@H](C)c2ccccc2)[C@H]1c1ccc(OC)cc1,"inconclusive: 100 µM [inhibitor, single point]",
COc1ccc(C(CC(=O)N2CCC(C(N)=O)CC2)c2ccccc2)cc1 (centres undefined),inactive,
CN(C)c1ccc(N=Nc2ccccc2C(=O)OCC(=O)Nc2ccccc2C(F)(F)F)cc1,inactive,
O=C1CC(c2ccccc2)N(C(=O)Nc2ccccc2F)CCCCCN1 (centres undefined),"inconclusive: 39.8 µM [inhibitor, full curve, poor fit]",
COCc1nnc(NC(=O)COc2ccc3c(c2)OCO3)s1,"inconclusive: 50.1 µM [inhibitor, partial curve, poor fit]",
N#Cc1nc(-c2ccco2)oc1NCc1ccccc1,inactive,
CCCc1cc(=O)n2nc(N3CCC(C(=O)Nc4c(F)c(F)c(F)c(F)c4F)CC3)sc2n1,inactive,
COc1cc(C(=O)Nc2ccc(N3CCOCC3)cc2)ccc1OCc1c(C)noc1C,inactive,
COc1ccccc1CNC(=O)CCCc1nnc2n(C)c(=O)c3sccc3n12,inactive,

# 3 compounds out of the list, ordered by molecular weight, ascending.
SMILES,Potency,"activity change, negative = inhibition"
O=C(O)c1ccccc1OCc1nc2ccccc2s1,inactive,
Cn1ccnc1C(=O)N1CC(F)(F)C[C@H]1c1nc(C2CC2)no1,inactive,
O=C(CSc1ncccc1C(=O)O)NC12CC3CC(CC(C3)C1)C2,active: 22.4 µM,

# Later entries:

SMILES,Potency,"activity change, negative = inhibition"
Cc1ccc(C(=O)CCC(=O)Nc2cccc(C(F)(F)F)c2)cc1C,"inconclusive: 2.82 µM [inhibitor, full curve, poor fit]",
COc1cccc(OC)c1-c1c(-c2ccccc2)ncn1CCCSC,inactive,
CCC(CO)Oc1cc(NCc2ccc(F)cc2)c2ncn(C(C)C)c2c1 (centres undefined),"inconclusive: 14.1 µM [inhibitor, full curve, poor fit]",
COc1ccc(NC2=NCC(=O)N2c2ccccc2F)c(OC)c1,"inconclusive: 35.5 µM [inhibitor, partial curve, poor fit]",
CNC(=O)NC(=O)C(C)OC(=O)c1cc2c(s1)CCCCC2 (centres undefined),inactive,
CCC(=O)Nc1ccc(C(=O)COC(=O)CCN2C(=O)C3CC=CCC3C2=O)cc1 (centres undefined),"inconclusive: 50.1 µM [inhibitor, partial curve, poor fit]",
COc1ccc(C2(c3ccc(OC)cc3)NC(=O)N(CC(=O)Nc3ccccc3C)C2=O)cc1,inactive,
Cc1cc2oc(=O)cc(CSc3ncn[nH]3)c2cc1C,"inconclusive: 44.7 µM [inhibitor, partial curve, poor fit]",
Cc1ccc(C(=O)Nc2cc(Cl)ccc2-n2cncn2)o1,inactive,
Cc1ccc(C2C(=O)N(C3CCCCCC3)CC(=O)N2CCC2=CCCCC2)cc1 (centres undefined),,inconclusive: -33.9% [inhibitor]
O=C(C[C@@H]1O[C@H](CNC(=O)c2ccco2)[C@@H](O)[C@H]1O)NCc1ccc(F)cc1,"inconclusive: 35.5 µM [inhibitor, full curve]",
O=C(CSc1nc2ccccc2o1)OCC(=O)c1ccc(F)cc1,"inconclusive: 89.1 µM [inhibitor, partial curve, poor fit]",
COc1ccc(C(=O)C2CCN(C(=O)c3ccco3)CC2)cc1,,inconclusive: -32.6% [inhibitor]
CC(=O)Nc1ccc(SC(C)C(=O)NC(N)=O)cc1 (centres undefined),inactive,
O=C(O)Cc1cccc(OCCCN(Cc2cccc(C(F)(F)F)c2Cl)CC(c2ccccc2)c2ccccc2)c1,active: 24.3 µM,
CC(C)(C)OC(=O)N1CCC(c2c(C(=O)N3CCN(c4ncccn4)CC3)cnn2-c2ccc(F)cc2)CC1,inactive,
Cc1cccc(N2CCN(c3cc(C(=O)O)c4cc(NC(=O)c5ccccc5)ccc4n3)CC2)c1,"inconclusive: 11.2 µM [inhibitor, full curve, poor fit]",
CC(C)(C)C(=O)/C=c1/[nH]c(=O)/c(=C/c2ccccc2C(F)(F)F)s1,"inconclusive: 0.224 µM [inhibitor, full curve, poor fit]",
COc1ccc(C(=O)NC2CCN(c3cc(-c4ccccc4)[nH]n3)CC2)c(C)c1,inactive,
CCN(CC)c1sc(S(C)(=O)=O)nc1S(=O)(=O)c1ccc(C)cc1,"inconclusive: 8.91 µM [inhibitor, full curve, poor fit]",
Nc1c(C(=O)Nc2cccc(C(=O)O)c2)sc2nc3c(cc12)CCCC3,"inconclusive: 50.1 µM [inhibitor, partial curve, poor fit]",
Fc1ccc(/C=N/NC(=S)Nc2cccnc2)cc1,"inconclusive: 44.7 µM [inhibitor, partial curve, poor fit]",
CN(C)c1ccc(CNC(=O)C2CCN(C(=O)c3ccc(-n4ccc5ccccc54)s3)CC2)cc1,inactive,
